Test results taken from patent US20110178072A1, “STEREOSPECIFICITY OF METHYLSULFINYL REDUCTION” (priority 2008, published 2011).

What was measured:
[1] = tested on: SK-Hep1 cells; assay: HPLC analysis of consumption of Met and Met sulfoxides from growth media; assay type: cell-based, human; settings: at 96 hours
[2] = HPLC analysis of Met-RO and Met-SO level in mouse plasma; assay type: in vivo
[3] = medium supplemented with the compound alone (0.1 mM)
[4] = wild type mice subjected to selenium deficiency

Structure (SMILES)	Relative amount in the medium, of the initial level [1, 3]	Relative amount in the medium, of the initial level ([1]; in Met-RSO medium (0.1 mM))	Concentration in plasma ([2]; MsrA knockout mice)	Concentration in plasma ([2]; wild type mice)	Concentration in plasma [2, 4]
CSCC[C@H](N)C(=O)O [Met, methionine]	approximately 60%	–	–	–	–
C[S@@+]([O-])CC[C@H](N)C(=O)O [Met-RO, methionine-R-sulfoxide]	not changed	not changed	≈ 9.8±1.6 μM	≈ 9.1±0.7 μM	≈ 16.2±2.4 μM
C[S@+]([O-])CC[C@H](N)C(=O)O [Met-SO, methionine-S-sulfoxide]	88%	77%	≈ 14.6±3.1 μM	not detected	≈ 3.7±0.6 μM
